# Reference: US6486129B1, “Antithrombotic compounds” (Akzo Nobel N.V., priority 1998, dated 2002)
# Structures were worked out from names or drawings and are uncertain.
# Columns and labels:
# [1] = biological target: Human thrombin (Factor IIa) (Homo sapiens, UniProt P00734); assay: Anti-thrombin assay (chromogenic substrate S-2238, TNP buffer); type: biochemical; settings: read-out: Antithrombin activity IC50, S-2238, TNP buffer pH 7.4, 37° C., tested form: Na salt
# [2] = system: Activated Factor X (Xa); assay: Anti-factor Xa assay (chromogenic substrate S-2222, TNP buffer); settings: tested form: Na salt
# Method: Activated Factor X (Xa) is a factor in the coagulation cascade. The anti-Xa activity of compounds of the present invention was assessed by measuring spectrophotometrically the rate of hydrolysis of the chromogenic substrate s-2222 exterted by Xa. This assay for anti-Xa activity in a buffer system was used to assess the IC50-value of the test compound.
# In general the followed procedure and test conditions were analogous to those of the anti-thrombin assay as described above. Differences are indicated below.
# Reference compound: benzamidine
# Solubilisation can be assisted with dimethylsulphoxide, methanol ethanol, acetonitrile or tert.-butyl alcohol which are without adverse effects in concentrations up to 1% (for DMSO) and 2.5% (for the other solvents) in the final reaction mixture.
# One vial S-2222 (15 mg; Kabi Diagnostica, Sweden) is dissolved in 10 ml water to give a concentration of 1.5 mg·ml^−1 (2 mmol·l^−1).
# Bovine Factor Xa Human (71 nKat·vial^−1; Kabi Diagnostica) is dissolved in 10 ml TNP buffer and then further diluted with 30 ml TNP buffer to give a concentration of 1.77 nKat·ml^−1. The dilution has to be freshly prepared.
# Instead of the S-2238 solution (in anti-thrombin assay), the above S-2222 solution is added to each well in this assay.
compound,measurement,setting,value
CO[C@H]1O[C@H](COS(=O)(=O)O)[C@@H](O[C@@H]2O[C@@H](C(=O)O)[C@@H](O[C@H]3O[C@H](COS(=O)(=O)O)[C@@H](O[C@@H]4O[C@H](C(=O)O)[C@@H](O[C@H]5O[C@H](COS(=O)(=O)O)[C@@H](OCCOCCOCCOCCNC(=O)c6ccc(NC(=O)CSC[C@H](NS(=O)(=O)c7ccc8ccccc8c7)C(=O)NC(Cc7ccc(C(=N)N)cc7)C(=O)N7CCCCC7)cc6)[C@H](OS(=O)(=O)O)[C@H]5OS(=O)(=O)O)[C@H](OC)[C@H]4OS(=O)(=O)O)[C@H](OS(=O)(=O)O)[C@H]3OS(=O)(=O)O)[C@H](OC)[C@H]2OS(=O)(=O)O)[C@H](OS(=O)(=O)O)[C@H]1OS(=O)(=O)O (some centres unmarked),IC50,[1],350 nM
same,Anti-factor Xa activity,[2],885 U/mg
